# Data as given in PubChem BioAssay AID1259308 (NCATS, 2017).
# Aim: 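Genes whose loss raises luciferase production in HEK293 cells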 (primary screen)
# System: human HEK293 embryonic kidney cells stably expressing firefly luciferase (HEK-CMV-Luc2-Hygro)
# Reagent: single siRNA against human genes, 0.8 pmol siRNA per well
# Time to read-out: 72 h
# Measured: 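Reporter luminescence and viable-cell signal on separate replicate plates, given as percent of non-targeting control and median/MAD z-scores, plus per-cell luciferase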
# Direction: total luciferase, z-score and total luciferase, % of control: higher = more reporter protein produced; luciferase per cell, z-score: higher = more reporter output per viable cell; viable cells, % of control: higher = more viable cells
# Active means: 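Active when the median/MAD z-score for overall luciferase is greater than 3; a gene was taken forward for validation with new siRNAs if at least two of its three siRNAs passed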
# Calls: active = raised luciferase; inactive = no rise
# In all, the deposit lists about 59,000 reagents; below is an unselected part. About 1,510 of all reagents (2.6%) were called active. 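Calls use total luciferase alone and ignore viability, so some active siRNAs may act by altering cell number.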 Entries without a mark were called inactive. Reagents against one gene are numbered here.
gene,reagent no.,"total luciferase, z-score","total luciferase, % of control","luciferase per cell, z-score","viable cells, % of control"
SPINK9,1,0.482,91.5,-0.253,109
SPINK9,2,0.388,89.6,0.587,85.8
SPINK9,3,-0.115,79.6,-0.791,110
GET1P1,1,-3.04,21.4,-3.57,61.2
GET1P1,2,0.251,86.9,0.691,80.9
GET1P1,3,0.337,88.6,0.142,95.3
USP14,1,-0.419,73.5,-0.163,85.8
USP14,2,-0.435,73.2,-0.832,102
USP14,3,-0.428,73.4,-0.462,92.6
CCDC136,1,1.86,119,2.2,74.4
CCDC136,2,-0.69,68.2,-0.689,91.3
CCDC136,3,-0.567,70.6,-0.827,98.1
ZFP41,1,5.63 (active),194,3.36,89.5
ZFP41,2,-0.492,72.1,0.0415,79.7
ZFP41,3,0.731,96.4,0.626,91.4
TEDC2-AS1,1,0.386,89.6,0.155,96.1
TEDC2-AS1,2,0.881,99.4,0.444,98.8
TEDC2-AS1,3,-0.689,68.2,-0.504,87
CCL19,1,0.899,99.8,0.0405,110
CCL19,2,2.33,128,2.04,83.7
CCL19,3,0.406,90,-0.689,121
POLR3K,1,0.054,83,0.159,88.9
POLR3K,2,0.174,85.3,0.0321,94.6
POLR3K,3,-0.933,63.3,-1.03,92.8
SLC32A1,1,0.152,84.9,-0.298,103
SLC32A1,2,-2.32,35.8,-2.34,74.1
SLC32A1,3,-0.334,75.2,-0.475,95.3
GSDMB,1,1.37,109,0.725,101
GSDMB,2,-0.055,80.8,-0.367,99.4
GSDMB,3,1.15,105,0.644,98.9
CCDC28B,1,1.57,113,0.446,112
CCDC28B,2,-0.299,75.9,-0.693,102
CCDC28B,3,0.274,87.3,-0.208,103
HIC2,1,0.742,96.6,1.67,69.6
HIC2,2,-0.33,75.3,-0.227,89.3
HIC2,3,-0.846,65.1,-1.44,106
MARCKS,1,-0.276,76.4,-0.0661,86.9
MARCKS,2,1.37,109,0.773,99.4
MARCKS,3,-0.00746,81.7,-0.804,113

Laid out differently: results already given
SLC32A1 #3
- total luciferase, z-score: -0.334
- total luciferase, % of control: 75.2
- luciferase per cell, z-score: -0.475
- viable cells, % of control: 95.3

GSDMB #1
- total luciferase, z-score: 1.37
- total luciferase, % of control: 109
- luciferase per cell, z-score: 0.725
- viable cells, % of control: 101

GSDMB #2
- total luciferase, z-score: -0.055
- total luciferase, % of control: 80.8
- luciferase per cell, z-score: -0.367
- viable cells, % of control: 99.4

GSDMB #3
- total luciferase, z-score: 1.15
- total luciferase, % of control: 105
- luciferase per cell, z-score: 0.644
- viable cells, % of control: 98.9
